The list shows a part of the results.
How the values were obtained:
Experiment in all cases: log2 fold change, soluble protein after heating vs DMSO (PISA); higher = thermal stabilisation; K562 cells, 10 uM, 30 min; active = over 0.2 and 3.5 SD of the protein, either way, in both replicates (recomputed)
[1] = compound: Cc1ccc(NC(=O)c2ccc(CN3CC[C@H](N(C)C)C3)c(C(F)(F)F)c2)cc1Nc1nccc(-c2cncnc2)n1 [bafetinib]
Procedure, shortened: (§1)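 For each measurement, 10 μM compound was applied for 30 min to K562 cells at 2×10^6 cells/mL. Aliquots were heated for 3 min across 48°C-58°C, pooled, and extracted in PBS with 0.5% NP-40 at 4°C; the supernatant after 21,000xg for 90 min was soluble protein. This was quantified by TMTpro 16plex LC-MS/MS with channel sums equalised, and thermal stability was reported relative to control samples from duplicates, on a log2 fold-change scale.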

Amino acid sequences for entries named in this document (tags omitted). A change or cut given only in a name is not applied to a line headed by its entry.
UniProt P00558: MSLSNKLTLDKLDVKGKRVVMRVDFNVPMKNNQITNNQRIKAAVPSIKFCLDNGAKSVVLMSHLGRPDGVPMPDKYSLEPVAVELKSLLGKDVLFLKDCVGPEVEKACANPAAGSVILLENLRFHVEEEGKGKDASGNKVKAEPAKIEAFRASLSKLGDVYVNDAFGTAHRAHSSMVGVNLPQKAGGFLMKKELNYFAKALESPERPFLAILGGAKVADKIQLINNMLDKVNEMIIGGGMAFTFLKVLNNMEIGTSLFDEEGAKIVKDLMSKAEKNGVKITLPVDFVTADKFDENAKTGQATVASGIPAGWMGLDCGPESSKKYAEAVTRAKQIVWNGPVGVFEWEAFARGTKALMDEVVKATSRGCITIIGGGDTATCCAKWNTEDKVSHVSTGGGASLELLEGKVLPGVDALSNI
UniProt P78356: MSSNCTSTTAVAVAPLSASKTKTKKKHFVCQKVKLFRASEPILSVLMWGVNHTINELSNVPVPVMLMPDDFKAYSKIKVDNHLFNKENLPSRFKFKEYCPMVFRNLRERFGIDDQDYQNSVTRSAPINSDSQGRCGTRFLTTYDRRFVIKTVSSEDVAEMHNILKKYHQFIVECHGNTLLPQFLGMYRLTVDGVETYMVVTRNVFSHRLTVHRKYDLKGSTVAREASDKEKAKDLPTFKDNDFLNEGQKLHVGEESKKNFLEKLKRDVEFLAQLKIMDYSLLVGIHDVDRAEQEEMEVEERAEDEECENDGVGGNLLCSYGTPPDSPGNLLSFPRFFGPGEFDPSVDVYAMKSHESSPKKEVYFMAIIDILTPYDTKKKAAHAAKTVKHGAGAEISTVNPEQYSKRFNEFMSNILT
UniProt P27986, whole entry, looked up: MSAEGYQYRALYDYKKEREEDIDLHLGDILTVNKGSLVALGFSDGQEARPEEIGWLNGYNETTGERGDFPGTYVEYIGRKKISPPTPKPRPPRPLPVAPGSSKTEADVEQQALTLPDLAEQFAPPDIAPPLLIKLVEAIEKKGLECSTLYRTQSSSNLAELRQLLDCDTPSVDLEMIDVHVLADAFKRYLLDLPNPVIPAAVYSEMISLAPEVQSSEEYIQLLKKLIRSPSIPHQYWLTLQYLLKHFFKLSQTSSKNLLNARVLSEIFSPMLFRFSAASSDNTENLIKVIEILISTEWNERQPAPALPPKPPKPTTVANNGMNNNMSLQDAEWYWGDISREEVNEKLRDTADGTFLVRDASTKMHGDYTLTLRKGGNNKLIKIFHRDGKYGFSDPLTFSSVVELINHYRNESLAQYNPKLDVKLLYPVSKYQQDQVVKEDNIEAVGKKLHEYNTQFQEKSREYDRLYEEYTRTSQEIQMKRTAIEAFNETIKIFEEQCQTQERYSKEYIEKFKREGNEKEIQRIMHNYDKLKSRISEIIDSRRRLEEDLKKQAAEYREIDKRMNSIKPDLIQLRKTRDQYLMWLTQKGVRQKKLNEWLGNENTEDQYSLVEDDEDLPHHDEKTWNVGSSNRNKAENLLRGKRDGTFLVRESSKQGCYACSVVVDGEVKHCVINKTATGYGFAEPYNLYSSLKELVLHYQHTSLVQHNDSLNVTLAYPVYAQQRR
UniProt O15173: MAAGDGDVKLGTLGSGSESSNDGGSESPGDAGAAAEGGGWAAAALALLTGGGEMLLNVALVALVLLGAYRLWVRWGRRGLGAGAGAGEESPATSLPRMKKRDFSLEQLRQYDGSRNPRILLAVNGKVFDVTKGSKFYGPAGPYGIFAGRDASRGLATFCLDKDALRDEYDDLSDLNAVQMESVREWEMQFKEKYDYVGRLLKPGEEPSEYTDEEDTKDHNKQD
UniProt Q9Y5Y5: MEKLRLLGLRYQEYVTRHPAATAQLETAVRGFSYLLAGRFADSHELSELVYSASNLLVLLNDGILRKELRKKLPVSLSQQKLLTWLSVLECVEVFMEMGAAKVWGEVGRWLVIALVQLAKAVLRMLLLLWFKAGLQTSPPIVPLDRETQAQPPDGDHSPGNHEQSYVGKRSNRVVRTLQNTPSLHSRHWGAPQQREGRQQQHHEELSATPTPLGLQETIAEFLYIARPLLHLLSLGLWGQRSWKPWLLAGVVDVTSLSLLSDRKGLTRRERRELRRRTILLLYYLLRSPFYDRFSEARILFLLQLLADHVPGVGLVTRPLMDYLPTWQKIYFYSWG
UniProt P42338: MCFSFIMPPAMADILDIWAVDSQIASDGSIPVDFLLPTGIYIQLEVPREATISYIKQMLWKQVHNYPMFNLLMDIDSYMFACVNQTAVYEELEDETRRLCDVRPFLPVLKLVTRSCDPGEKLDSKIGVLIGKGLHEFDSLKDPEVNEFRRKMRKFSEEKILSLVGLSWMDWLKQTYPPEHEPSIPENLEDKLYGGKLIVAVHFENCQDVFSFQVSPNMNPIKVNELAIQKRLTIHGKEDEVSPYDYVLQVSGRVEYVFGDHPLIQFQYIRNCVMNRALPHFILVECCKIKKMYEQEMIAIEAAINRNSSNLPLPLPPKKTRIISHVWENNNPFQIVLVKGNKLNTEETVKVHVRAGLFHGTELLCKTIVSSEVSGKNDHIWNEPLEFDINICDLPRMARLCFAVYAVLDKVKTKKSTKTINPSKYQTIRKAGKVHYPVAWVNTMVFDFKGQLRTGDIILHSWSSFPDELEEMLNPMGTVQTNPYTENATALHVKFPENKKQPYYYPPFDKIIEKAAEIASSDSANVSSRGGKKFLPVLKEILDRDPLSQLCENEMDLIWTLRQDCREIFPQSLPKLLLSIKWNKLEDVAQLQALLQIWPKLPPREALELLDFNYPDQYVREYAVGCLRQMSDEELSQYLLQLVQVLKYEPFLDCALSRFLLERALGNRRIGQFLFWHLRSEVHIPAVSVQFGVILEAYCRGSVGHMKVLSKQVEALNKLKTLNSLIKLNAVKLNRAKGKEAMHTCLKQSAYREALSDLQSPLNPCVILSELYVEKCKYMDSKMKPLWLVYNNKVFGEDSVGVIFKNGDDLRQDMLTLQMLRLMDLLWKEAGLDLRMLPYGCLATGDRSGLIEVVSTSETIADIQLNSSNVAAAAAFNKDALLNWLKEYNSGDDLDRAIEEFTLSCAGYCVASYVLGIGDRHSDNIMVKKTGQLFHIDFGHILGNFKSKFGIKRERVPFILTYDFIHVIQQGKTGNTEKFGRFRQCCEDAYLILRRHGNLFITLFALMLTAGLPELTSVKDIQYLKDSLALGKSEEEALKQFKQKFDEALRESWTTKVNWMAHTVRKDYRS
UniProt Q6PCE3: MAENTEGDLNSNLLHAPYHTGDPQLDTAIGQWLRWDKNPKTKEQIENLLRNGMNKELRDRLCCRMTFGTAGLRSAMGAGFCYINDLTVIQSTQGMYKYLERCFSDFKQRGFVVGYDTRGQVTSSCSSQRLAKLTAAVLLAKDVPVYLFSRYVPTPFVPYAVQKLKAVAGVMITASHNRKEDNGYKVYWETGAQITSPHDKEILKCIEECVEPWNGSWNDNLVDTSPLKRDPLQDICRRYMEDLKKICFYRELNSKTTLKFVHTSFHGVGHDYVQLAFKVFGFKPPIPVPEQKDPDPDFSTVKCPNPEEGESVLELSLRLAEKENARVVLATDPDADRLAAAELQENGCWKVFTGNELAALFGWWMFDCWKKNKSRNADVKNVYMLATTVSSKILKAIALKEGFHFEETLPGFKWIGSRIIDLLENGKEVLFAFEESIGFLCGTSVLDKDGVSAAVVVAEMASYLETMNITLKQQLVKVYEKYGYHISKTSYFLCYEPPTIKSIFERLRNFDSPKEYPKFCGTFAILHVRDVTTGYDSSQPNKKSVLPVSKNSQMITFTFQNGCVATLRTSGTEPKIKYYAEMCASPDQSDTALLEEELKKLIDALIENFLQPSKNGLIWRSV
UniProt P07737, whole entry, looked up: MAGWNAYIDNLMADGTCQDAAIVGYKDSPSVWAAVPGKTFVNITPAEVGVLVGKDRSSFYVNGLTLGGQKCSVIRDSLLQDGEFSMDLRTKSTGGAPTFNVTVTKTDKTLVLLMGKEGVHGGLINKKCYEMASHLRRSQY
UniProt O15212, whole entry, looked up: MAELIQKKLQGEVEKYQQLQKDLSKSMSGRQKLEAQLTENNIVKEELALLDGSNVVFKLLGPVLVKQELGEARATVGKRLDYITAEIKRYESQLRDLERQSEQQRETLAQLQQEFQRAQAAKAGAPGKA
UniProt P07205: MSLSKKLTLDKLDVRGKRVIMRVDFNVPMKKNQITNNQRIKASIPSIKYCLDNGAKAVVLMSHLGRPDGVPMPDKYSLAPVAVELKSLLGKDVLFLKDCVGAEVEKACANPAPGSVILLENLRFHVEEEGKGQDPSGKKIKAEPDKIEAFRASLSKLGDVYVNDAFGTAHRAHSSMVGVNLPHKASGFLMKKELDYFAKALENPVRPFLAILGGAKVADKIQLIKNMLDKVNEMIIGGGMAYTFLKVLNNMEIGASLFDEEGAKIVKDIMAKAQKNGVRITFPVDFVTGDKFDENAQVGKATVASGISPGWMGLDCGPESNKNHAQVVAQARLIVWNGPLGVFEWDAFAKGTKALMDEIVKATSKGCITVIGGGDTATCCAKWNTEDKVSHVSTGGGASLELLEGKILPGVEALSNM
UniProt Q7RTV0, whole entry, looked up: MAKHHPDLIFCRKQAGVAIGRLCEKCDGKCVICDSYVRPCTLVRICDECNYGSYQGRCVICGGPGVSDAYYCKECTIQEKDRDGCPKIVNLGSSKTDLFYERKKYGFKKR
UniProt O00459, whole entry, looked up: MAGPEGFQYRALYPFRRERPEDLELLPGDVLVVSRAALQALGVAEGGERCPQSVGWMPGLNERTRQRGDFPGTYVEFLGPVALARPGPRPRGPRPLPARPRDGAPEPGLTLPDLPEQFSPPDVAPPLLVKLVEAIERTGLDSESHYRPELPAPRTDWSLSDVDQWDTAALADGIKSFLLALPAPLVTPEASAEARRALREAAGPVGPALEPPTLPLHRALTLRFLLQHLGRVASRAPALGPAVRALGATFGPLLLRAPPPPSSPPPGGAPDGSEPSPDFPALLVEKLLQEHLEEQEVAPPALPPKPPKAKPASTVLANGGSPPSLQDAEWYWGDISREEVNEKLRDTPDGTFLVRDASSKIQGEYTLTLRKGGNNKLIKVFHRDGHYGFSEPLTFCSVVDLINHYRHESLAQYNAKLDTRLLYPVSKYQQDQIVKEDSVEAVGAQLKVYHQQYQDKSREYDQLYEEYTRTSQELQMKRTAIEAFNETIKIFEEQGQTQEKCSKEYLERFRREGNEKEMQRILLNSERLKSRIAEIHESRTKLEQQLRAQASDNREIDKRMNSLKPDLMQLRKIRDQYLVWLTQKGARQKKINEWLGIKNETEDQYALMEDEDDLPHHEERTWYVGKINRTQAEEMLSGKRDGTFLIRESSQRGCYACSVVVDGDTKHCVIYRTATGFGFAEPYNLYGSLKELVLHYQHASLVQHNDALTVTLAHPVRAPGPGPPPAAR
UniProt Q01970, whole entry, looked up: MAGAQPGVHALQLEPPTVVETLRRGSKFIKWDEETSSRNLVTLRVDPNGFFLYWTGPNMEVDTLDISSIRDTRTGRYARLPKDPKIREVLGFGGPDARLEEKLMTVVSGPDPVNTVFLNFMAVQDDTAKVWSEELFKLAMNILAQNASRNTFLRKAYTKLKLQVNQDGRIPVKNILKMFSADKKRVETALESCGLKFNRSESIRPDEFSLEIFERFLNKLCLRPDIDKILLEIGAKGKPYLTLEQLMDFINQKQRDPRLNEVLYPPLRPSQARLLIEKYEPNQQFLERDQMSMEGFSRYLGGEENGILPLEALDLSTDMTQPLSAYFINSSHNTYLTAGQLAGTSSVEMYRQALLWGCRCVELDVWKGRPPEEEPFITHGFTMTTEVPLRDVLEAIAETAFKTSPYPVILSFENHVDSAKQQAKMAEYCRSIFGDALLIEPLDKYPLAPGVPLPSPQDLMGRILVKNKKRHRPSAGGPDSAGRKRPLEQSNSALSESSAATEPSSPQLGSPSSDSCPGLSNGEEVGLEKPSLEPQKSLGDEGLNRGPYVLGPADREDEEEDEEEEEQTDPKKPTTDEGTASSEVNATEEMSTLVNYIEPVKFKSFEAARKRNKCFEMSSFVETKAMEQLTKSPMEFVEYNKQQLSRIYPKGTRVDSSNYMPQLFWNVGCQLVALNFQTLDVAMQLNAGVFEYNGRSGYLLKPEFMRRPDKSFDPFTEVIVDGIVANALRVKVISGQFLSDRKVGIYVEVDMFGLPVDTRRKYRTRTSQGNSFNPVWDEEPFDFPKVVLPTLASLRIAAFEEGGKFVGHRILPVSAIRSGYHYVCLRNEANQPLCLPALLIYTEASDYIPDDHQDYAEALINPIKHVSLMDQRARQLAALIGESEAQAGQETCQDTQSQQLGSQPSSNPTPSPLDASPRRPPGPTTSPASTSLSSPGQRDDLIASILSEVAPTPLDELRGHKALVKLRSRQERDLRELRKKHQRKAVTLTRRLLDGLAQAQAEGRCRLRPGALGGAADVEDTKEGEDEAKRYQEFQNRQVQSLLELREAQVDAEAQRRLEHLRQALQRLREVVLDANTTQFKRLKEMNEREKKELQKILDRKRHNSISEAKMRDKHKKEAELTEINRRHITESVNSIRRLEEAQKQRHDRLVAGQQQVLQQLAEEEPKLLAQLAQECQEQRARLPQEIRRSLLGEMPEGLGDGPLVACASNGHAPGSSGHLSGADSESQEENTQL

[2] = compound: Cc1cccc(CC(=O)N2CCc3c2ccc(-c2cn(C)c4ncnc(N)c24)c3F)n1
Procedure, shortened: as §1

[3] = compound: Cc1cn(-c2cc(NC(=O)c3ccc(C)c(Nc4nccc(-c5cccnc5)n4)c3)cc(C(F)(F)F)c2)cn1 [nilotinib]
Procedure, shortened: as §1

[4] = compound: Cc1nc(Nc2n[nH]c3c2CN(C(=O)N[C@H](CN(C)C)c2ccccc2)C3(C)C)c2sccc2n1
Procedure, shortened: as §1

[5] = compound: Cc1nc(Nc2ncc(C(=O)Nc3c(C)cccc3Cl)s2)cc(N2CCN(CCO)CC2)n1 [dasatinib]
Procedure, shortened: as §1

[6] = compound: Cc1ncc(-c2ccnc(Nc3ccc(S(C)(=O)=O)cc3)n2)n1C(C)C
Procedure, shortened: as §1

[7] = compound: Cn1cc(-c2ccc3c(c2)CCN3C(=O)Cc2cccc(C(F)(F)F)c2)c2c(N)ncnc21
Procedure, shortened: as §1

[8] = compound: Cn1cc(-c2ccc3nnc(C(F)(F)c4ccc5ncccc5c4)n3n2)cn1
Procedure, shortened: as §1

[9] = compound: Cn1cncc1[C@@](N)(c1ccc(Cl)cc1)c1ccc2c(c1)c(-c1cccc(Cl)c1)cc(=O)n2C [tipifarnib]
Procedure, shortened: as §1

[10] = compound: FC(F)(F)c1ccc(/C=C/c2nc(COc3ccc(CCCCn4ccnn4)cc3)co2)cc1 [mubritinib]
Procedure, shortened: as §1

Measured: log2 fold change

PGK1 (UniProt P00558)
inactive: [1] 0.01 | [2] -0.01 | [3] 0.061 | [4] 0.018 | [5] -0.018 | [6] -0.002 | [7] 0.066 | [8] 0.011 | [9] -0.038 | [10] 0.037

PJA2 (UniProt O43164)
inactive: [1] -0.121 | [2] -0.072 | [3] 0.023 | [4] -0.021 | [5] 0.036 | [6] -0.04 | [7] -0.06 | [8] 0.008 | [9] 0.071 | [10] 0.018

PFKFB3 isoform 4 (UniProt Q16875)
inactive: [1] -0.037 | [2] -0.034 | [3] -0.058 | [4] 0.016 | [5] -0.047 | [6] -0.02 | [7] -0.007 | [8] 0.041 | [9] 0.005 | [10] 0.013

PISD (UniProt Q9UG56)
inactive: [1] -0.042 | [2] -0.007 | [3] -0.053 | [4] -0.003 | [5] -0.029 | [6] 0.105 | [7] -0.068 | [8] -0.02 | [9] -0.005 | [10] 0.103

PKLR (UniProt P30613)
inactive: [1] -0.042 | [2] -0.013 | [3] -0.015 | [4] -0.002 | [5] 0.003 | [6] 0.006 | [7] 0.014 | [8] -0.01 | [9] -0.008 | [10] 0.043

PITRM1 isoform 2 (UniProt Q5JRX3)
inactive: [1] -0.052 | [2] -0.039 | [3] -0.108 | [4] 0.01 | [5] -0.132 | [6] -0.088 | [7] 0.119 | [8] -0.004 | [9] 0.003 | [10] 0.005

PIP4K2B (UniProt P78356)
active: [6] 0.538
inactive: [1] 0.258 | [2] 0.011 | [3] 0.085 | [4] 0.05 | [5] 0.139 | [7] 0.055 | [8] 0.172 | [9] -0.03 | [10] -0.083

PHACTR4 isoform 2 (UniProt Q8IZ21)
inactive: [1] -0.006 | [2] -0.173 | [3] 0.054 | [4] 0.023 | [5] -0.017 | [6] 0.032 | [7] 0.029 | [8] -0.005 | [9] 0.01 | [10] 0.06

PIK3R1 (UniProt P27986)
inactive: [1] -0.061 | [2] 0.029 | [3] -0.074 | [4] 0.015 | [5] -0.117 | [6] 0.108 | [7] 0.009 | [8] -0.013 | [9] -0.026 | [10] 0.017

PLCG1 isoform 2 (UniProt P19174)
inactive: [1] -0.054 | [2] -0.08 | [3] -0.072 | [4] 0.079 | [5] -0.257 | [6] 0.024 | [7] 0.031 | [8] 0.005 | [9] -0.144 | [10] 0.11

PGRMC2 isoform 2 (UniProt O15173)
inactive: [1] -0.069 | [2] 0 | [3] 0.002 | [4] 0.023 | [5] -0.007 | [6] -0.012 | [7] 0.062 | [8] 0.013 | [9] 0.009 | [10] -0.023

PIP5K1A (UniProt Q99755)
inactive: [1] 0 | [2] -0.042 | [3] -0.271 | [4] -0.04 | [5] 0.027 | [6] -0.231 | [7] -0.266 | [8] -0.11 | [9] 0.047 | [10] -0.14

PEX16 isoform 2 (UniProt Q9Y5Y5)
inactive: [1] -0.202 | [2] 0.016 | [3] -0.067 | [4] 0.006 | [5] 0.004 | [6] -0.006 | [7] 0.079 | [8] 0.079 | [9] -0.067 | [10] 0.174

PKN2 (UniProt Q16513)
inactive: [1] 0.068 | [2] 0.062 | [3] 0.125 | [4] -0.219 | [5] -0.138 | [6] 0.051 | [7] 0.016 | [8] 0.01 | [9] -0.059 | [10] 0.048

PHF23 (UniProt Q9BUL5)
inactive: [1] -0.053 | [2] -0.008 | [3] 0.06 | [4] -0.003 | [5] -0.007 | [6] -0.013 | [7] -0.018 | [8] 0.046 | [9] 0.009 | [10] 0.029

PLD1 (UniProt Q13393)
inactive: [1] -0.136 | [2] 0.144 | [3] -0.063 | [4] -0.135 | [5] 0.054 | [6] -0.023 | [7] -0.153 | [8] -0.049 | [9] 0.106 | [10] 0.052

PFKL isoform 2 (UniProt P17858)
inactive: [1] -0.039 | [2] -0.015 | [3] 0.006 | [4] 0.014 | [5] -0.006 | [6] 0.016 | [7] 0.027 | [8] 0.011 | [9] 0 | [10] 0.053

PIR (UniProt O00625)
inactive: [1] -0.073 | [2] 0.001 | [3] 0.009 | [4] -0.006 | [5] -0.044 | [6] -0.014 | [7] -0.003 | [8] 0.028 | [9] -0.069 | [10] 0.11

PIK3C3 (UniProt Q8NEB9)
inactive: [1] 0.065 | [2] -0.011 | [3] 0.043 | [4] -0.039 | [5] -0.04 | [6] 0.202 | [7] -0.035 | [8] -0.006 | [9] 0.047 | [10] 0.042

PIK3CB (UniProt P42338)
inactive: [1] -0.075 | [2] 0.028 | [3] -0.084 | [4] -0.056 | [5] -0.209 | [6] 0.034 | [7] -0.002 | [8] 0.049 | [9] -0.105 | [10] 0.037

PGM2L1 (UniProt Q6PCE3)
inactive: [1] -0.059 | [2] 0 | [3] 0.056 | [4] -0.044 | [5] 0.034 | [6] -0.007 | [7] 0.005 | [8] 0.01 | [9] 0.012 | [10] 0.119

PFN1 (UniProt P07737)
inactive: [1] -0.059 | [2] 0.018 | [3] -0.041 | [4] -0.013 | [5] 0.015 | [6] -0.004 | [7] 0.034 | [8] 0.019 | [9] -0.023 | [10] 0.016

PFDN6 (UniProt O15212)
inactive: [1] -0.01 | [2] 0.016 | [3] -0.004 | [4] 0.004 | [5] 0.046 | [6] 0.017 | [7] 0.007 | [8] 0.039 | [9] -0.002 | [10] 0.019

PGK2 (UniProt P07205)
inactive: [1] 0.009 | [2] -0.036 | [3] 0.066 | [4] 0.096 | [5] 0.11 | [6] -0.013 | [7] -0.137 | [8] -0.029 | [9] -0.006 | [10] -0.092

5 consecutive records from above, quoted:
PIK3CB (UniProt P42338)
inactive: [1] -0.075 | [2] 0.028 | [3] -0.084 | [4] -0.056 | [5] -0.209 | [6] 0.034 | [7] -0.002 | [8] 0.049 | [9] -0.105 | [10] 0.037

PGM2L1 (UniProt Q6PCE3)
inactive: [1] -0.059 | [2] 0 | [3] 0.056 | [4] -0.044 | [5] 0.034 | [6] -0.007 | [7] 0.005 | [8] 0.01 | [9] 0.012 | [10] 0.119

PFN1 (UniProt P07737)
inactive: [1] -0.059 | [2] 0.018 | [3] -0.041 | [4] -0.013 | [5] 0.015 | [6] -0.004 | [7] 0.034 | [8] 0.019 | [9] -0.023 | [10] 0.016

PFDN6 (UniProt O15212)
inactive: [1] -0.01 | [2] 0.016 | [3] -0.004 | [4] 0.004 | [5] 0.046 | [6] 0.017 | [7] 0.007 | [8] 0.039 | [9] -0.002 | [10] 0.019

PGK2 (UniProt P07205)
inactive: [1] 0.009 | [2] -0.036 | [3] 0.066 | [4] 0.096 | [5] 0.11 | [6] -0.013 | [7] -0.137 | [8] -0.029 | [9] -0.006 | [10] -0.092

(listing goes on)

PHF5A (UniProt Q7RTV0)
inactive: [1] -0.097 | [2] -0.047 | [3] -0.018 | [4] 0.012 | [5] 0.102 | [6] 0.086 | [7] -0.031 | [8] 0.03 | [9] 0.031 | [10] -0.025

PIK3R2 (UniProt O00459)
inactive: [1] 0.095 | [2] -0.007 | [3] -0.1 | [4] -0.177 | [5] -0.094 | [6] -0.089 | [7] -0.068 | [8] 0.027 | [9] 0.028 | [10] -0.025

PLCB3 (UniProt Q01970)
inactive: [1] -0.059 | [2] -0.084 | [3] -0.104 | [4] 0.033 | [5] -0.092 | [6] -0.006 | [7] -0.006 | [8] 0.061 | [9] -0.039 | [10] 0.003

PFKFB2 (UniProt O60825)
inactive: [1] 0.004 | [2] 0.02 | [3] -0.052 | [4] 0.016 | [5] -0.095 | [6] -0.018 | [7] 0.017 | [8] -0.004 | [9] 0.005 | [10] 0.041

PFDN2 (UniProt Q9UHV9)
inactive: [1] -0.045 | [2] -0.021 | [3] 0.003 | [4] -0.004 | [5] 0.024 | [6] -0.021 | [7] 0.014 | [8] 0.023 | [9] 0.017 | [10] 0.047
